Source: the supplement of paper PMC10849652
The other results are listed elsewhere or left out.

Amino acid sequences for entries named in this document (tags omitted). A change or cut given only in a name is not applied to a line headed by its entry.
UniProt Q9NRC1: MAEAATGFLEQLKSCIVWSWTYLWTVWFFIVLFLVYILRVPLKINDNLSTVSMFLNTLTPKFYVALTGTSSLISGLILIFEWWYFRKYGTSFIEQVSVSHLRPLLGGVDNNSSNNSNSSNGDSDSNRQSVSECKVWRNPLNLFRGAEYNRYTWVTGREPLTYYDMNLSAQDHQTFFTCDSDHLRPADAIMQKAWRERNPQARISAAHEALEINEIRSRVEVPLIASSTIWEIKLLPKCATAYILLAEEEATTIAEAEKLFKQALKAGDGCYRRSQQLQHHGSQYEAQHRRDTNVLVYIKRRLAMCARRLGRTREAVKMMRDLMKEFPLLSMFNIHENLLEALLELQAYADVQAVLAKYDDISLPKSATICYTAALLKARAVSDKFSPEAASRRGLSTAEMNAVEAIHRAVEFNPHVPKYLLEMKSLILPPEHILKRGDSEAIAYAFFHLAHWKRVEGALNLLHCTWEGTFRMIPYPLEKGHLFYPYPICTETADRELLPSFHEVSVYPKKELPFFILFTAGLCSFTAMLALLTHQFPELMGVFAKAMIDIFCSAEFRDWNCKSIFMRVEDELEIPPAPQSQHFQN
UniProt Q8TCT8: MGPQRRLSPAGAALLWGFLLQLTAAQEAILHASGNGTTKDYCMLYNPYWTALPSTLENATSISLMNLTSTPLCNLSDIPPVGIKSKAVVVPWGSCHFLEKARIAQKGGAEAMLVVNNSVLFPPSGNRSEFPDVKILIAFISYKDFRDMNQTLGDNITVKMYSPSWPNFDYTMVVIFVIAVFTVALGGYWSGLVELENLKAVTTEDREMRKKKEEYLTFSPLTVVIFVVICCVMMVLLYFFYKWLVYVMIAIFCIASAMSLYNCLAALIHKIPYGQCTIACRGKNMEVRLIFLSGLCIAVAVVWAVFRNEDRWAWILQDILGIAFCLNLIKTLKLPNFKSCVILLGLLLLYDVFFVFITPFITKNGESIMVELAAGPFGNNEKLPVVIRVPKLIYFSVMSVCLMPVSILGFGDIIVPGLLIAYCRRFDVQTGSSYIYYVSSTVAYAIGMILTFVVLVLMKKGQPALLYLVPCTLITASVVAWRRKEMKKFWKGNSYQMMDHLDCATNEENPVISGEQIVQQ
UniProt P42224: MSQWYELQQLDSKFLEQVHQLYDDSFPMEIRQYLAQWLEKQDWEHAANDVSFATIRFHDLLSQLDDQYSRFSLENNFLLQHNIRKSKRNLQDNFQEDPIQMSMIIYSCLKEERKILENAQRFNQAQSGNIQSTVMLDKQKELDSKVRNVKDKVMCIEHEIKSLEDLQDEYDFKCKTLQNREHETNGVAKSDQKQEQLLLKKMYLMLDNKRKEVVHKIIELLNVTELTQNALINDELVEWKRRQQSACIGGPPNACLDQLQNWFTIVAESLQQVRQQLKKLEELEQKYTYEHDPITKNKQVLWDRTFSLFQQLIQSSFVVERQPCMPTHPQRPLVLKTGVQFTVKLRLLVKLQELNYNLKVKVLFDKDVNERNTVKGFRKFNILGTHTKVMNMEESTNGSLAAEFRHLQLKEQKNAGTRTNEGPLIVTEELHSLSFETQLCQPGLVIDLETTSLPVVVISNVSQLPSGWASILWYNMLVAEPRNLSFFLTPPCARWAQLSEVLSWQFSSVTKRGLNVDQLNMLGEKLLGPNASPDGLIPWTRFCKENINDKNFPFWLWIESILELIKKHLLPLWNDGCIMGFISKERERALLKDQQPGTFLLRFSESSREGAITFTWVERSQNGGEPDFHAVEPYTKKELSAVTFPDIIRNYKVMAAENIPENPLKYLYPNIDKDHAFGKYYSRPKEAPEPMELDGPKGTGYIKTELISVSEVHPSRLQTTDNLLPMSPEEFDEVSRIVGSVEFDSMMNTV
UniProt P08240: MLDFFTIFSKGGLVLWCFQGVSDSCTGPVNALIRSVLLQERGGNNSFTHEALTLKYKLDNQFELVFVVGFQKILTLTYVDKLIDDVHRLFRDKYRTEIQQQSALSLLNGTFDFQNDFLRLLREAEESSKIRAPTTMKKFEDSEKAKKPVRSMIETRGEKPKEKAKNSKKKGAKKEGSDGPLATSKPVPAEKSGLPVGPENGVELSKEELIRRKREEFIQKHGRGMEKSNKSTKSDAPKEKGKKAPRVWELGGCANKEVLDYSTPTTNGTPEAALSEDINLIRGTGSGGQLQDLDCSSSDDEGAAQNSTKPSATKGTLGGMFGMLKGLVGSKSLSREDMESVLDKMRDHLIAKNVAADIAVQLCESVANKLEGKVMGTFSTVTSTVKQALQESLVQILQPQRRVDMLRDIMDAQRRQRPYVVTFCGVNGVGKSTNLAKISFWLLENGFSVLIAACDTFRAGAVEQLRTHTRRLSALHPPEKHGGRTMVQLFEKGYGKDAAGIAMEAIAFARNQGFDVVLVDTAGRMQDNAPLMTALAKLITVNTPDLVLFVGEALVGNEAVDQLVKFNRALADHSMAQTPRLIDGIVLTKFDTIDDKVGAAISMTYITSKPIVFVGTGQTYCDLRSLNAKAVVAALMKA
UniProt Q15831: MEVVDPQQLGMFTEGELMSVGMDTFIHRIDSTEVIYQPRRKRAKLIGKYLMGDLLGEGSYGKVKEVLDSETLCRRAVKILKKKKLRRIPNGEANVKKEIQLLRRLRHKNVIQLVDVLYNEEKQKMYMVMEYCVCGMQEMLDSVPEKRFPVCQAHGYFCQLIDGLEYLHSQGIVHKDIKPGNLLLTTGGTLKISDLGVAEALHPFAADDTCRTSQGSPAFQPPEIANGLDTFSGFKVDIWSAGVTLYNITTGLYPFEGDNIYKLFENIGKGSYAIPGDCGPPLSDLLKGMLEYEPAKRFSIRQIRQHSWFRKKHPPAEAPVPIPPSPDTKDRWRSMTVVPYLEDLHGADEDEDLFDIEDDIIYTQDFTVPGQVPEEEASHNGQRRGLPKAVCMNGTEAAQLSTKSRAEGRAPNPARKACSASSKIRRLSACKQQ
UniProt P11277, whole entry, looked up: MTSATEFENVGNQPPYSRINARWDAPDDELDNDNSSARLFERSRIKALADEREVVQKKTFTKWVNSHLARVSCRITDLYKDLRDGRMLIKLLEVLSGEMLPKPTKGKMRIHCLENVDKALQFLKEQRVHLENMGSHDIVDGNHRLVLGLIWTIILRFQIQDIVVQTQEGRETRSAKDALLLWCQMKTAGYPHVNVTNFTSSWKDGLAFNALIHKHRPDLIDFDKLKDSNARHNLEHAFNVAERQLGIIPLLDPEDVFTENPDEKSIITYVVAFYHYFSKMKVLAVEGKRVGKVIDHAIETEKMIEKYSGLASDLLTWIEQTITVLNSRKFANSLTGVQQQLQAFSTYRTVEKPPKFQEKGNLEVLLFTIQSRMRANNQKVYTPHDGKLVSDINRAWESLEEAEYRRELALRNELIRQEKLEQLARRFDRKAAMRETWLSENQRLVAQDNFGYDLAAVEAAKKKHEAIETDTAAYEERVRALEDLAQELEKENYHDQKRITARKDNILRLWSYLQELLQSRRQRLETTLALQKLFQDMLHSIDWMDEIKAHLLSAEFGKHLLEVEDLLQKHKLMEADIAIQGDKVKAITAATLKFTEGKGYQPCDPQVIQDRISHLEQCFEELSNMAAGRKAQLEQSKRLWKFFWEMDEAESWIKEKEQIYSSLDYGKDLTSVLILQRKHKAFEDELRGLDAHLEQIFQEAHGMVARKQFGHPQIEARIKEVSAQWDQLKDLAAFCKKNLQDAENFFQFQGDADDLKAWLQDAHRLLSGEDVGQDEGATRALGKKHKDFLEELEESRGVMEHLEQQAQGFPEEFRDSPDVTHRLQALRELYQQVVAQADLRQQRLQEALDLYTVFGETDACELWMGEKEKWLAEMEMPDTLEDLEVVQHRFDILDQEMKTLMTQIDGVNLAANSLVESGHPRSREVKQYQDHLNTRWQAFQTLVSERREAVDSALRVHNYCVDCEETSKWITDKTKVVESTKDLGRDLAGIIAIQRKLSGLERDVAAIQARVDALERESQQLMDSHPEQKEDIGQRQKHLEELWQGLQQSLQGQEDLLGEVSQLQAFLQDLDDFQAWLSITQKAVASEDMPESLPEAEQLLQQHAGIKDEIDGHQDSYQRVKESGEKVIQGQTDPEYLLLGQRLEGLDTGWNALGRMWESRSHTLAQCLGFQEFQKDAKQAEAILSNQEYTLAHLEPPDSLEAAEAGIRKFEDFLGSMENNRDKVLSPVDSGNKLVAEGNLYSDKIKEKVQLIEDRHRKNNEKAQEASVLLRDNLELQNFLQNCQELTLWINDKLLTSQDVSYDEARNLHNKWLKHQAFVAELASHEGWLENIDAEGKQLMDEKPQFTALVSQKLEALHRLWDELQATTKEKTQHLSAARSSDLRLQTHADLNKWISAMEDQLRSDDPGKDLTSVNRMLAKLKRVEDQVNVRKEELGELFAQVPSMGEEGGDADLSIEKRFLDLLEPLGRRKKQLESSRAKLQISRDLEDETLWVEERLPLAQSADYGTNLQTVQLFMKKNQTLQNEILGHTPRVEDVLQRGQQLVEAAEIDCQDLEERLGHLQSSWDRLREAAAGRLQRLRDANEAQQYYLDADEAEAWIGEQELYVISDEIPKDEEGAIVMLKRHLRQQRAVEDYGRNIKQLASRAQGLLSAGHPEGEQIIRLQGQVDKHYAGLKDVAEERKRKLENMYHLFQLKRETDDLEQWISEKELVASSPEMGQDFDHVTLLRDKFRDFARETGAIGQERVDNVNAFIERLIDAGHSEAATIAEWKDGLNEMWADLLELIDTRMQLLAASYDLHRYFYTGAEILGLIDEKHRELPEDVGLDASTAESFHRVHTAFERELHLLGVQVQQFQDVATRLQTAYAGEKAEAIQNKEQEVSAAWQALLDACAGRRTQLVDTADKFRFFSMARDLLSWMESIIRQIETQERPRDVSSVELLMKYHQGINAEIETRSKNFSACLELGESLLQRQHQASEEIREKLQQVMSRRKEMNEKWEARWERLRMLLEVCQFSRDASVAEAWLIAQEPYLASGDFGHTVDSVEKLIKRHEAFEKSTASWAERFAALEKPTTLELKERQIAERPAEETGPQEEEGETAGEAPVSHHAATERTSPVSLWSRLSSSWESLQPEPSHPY
UniProt Q9BWW4: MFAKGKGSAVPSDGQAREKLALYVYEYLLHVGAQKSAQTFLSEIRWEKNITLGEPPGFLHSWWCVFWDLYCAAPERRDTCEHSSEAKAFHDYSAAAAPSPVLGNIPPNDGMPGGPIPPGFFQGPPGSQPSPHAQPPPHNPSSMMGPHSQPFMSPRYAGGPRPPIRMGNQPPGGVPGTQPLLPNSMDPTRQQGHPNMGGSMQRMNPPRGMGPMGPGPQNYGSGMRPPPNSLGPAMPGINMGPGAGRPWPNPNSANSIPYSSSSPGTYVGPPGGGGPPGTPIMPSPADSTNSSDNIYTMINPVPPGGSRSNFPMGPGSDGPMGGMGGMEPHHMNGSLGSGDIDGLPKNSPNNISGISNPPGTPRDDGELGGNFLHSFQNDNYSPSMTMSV
UniProt O95793: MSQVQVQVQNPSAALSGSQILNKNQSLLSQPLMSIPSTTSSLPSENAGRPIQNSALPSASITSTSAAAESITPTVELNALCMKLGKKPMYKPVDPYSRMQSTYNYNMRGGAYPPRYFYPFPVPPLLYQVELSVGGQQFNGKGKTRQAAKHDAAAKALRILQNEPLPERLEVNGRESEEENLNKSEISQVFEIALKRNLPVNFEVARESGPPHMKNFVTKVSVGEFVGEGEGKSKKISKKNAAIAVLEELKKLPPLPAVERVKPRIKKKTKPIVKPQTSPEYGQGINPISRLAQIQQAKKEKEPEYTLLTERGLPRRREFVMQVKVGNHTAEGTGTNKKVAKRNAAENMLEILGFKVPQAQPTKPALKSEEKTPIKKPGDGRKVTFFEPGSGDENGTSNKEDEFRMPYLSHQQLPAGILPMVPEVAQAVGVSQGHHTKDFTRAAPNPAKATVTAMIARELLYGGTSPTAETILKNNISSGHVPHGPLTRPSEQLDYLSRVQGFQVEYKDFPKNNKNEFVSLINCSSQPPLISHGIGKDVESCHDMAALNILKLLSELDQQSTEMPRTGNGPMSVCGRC
UniProt Q13103: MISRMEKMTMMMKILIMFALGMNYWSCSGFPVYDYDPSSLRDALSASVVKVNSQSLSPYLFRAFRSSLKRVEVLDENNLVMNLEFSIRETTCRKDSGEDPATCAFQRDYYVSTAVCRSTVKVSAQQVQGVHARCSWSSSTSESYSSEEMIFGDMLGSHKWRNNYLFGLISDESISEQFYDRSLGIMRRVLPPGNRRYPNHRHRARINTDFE
UniProt Q9NZD8: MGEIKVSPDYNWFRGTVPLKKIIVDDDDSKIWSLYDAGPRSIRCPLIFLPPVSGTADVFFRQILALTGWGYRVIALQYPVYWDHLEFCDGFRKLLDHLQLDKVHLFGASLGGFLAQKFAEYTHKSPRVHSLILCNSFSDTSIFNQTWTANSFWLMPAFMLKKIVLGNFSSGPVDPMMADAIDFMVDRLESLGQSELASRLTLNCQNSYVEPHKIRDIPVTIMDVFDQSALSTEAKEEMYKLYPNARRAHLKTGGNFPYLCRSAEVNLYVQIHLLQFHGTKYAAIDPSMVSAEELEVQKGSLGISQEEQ

Tests used:
Test in all cases: log2 fold change, soluble protein after heating vs DMSO (PISA); higher = thermal stabilisation; K562 cells, 10 uM, 30 min; active = over 0.2 and 3.5 SD of the protein, either way, in both replicates (recomputed)
[1] = compound: CN1CCN(CCOc2cc(OC3CCOCC3)c3c(Nc4c(Cl)ccc5c4OCO5)ncnc3c2)CC1 [saracatinib]
Procedure, shortened: (§1)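 For each measurement, 10 μM compound was applied for 30 min to K562 cells at 2×10^6 cells/mL. Aliquots were heated for 3 min across 48°C-58°C, pooled, and extracted in PBS with 0.5% NP-40 at 4°C; the supernatant after 21,000xg for 90 min was soluble protein. This was quantified by TMTpro 16plex LC-MS/MS with channel sums equalised, and thermal stability was reported relative to control samples from duplicates, on a log2 fold-change scale.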

[2] = compound: CN1CCN(c2nc(C3=C(c4c[nH]c5ccccc45)C(=O)NC3=O)c3ccccc3n2)CC1 [sotrastaurin]
Procedure, shortened: as §1

[3] = compound: CN1CC[C@H](c2c(O)cc(O)c3c(=O)cc(-c4ccccc4Cl)oc23)[C@H](O)C1 [alvocidib]
Procedure, shortened: as §1

[4] = compound: CN1CCc2c(c3ccccc3n2Cc2ccc(C(=O)NO)cc2)C1 [Tubastatin A]
Procedure, shortened: as §1

[5] = compound: CNC(=O)C1=CC=CC=C1NC2=NC(=NC=C2Cl)NC3=C(C=C(C=C3)N4CCOCC4)OC
Procedure, shortened: as §1

[6] = compound: CNC(=O)c1ccc(Nc2ncc(C(F)(F)F)c(NCc3nccnc3N(C)S(C)(=O)=O)n2)cc1 [defactinib]
Procedure, shortened: as §1

[7] = compound: CNCc1ccc(-c2[nH]c3cc(F)cc4c3c2CCNC4=O)cc1 [rucaparib]
Procedure, shortened: as §1

[8] = compound: CNc1nc(-c2ccc3c(N)n[nH]c3c2)cc(N2C[C@@H](C(=O)NC3CCCCC3)CC[C@H]2C)n1
Procedure, shortened: as §1

[9] = compound: COC(=O)N[C@@H](C)CNc1nccc(-c2cn(C(C)C)nc2-c2cc(Cl)cc(NS(C)(=O)=O)c2F)n1 [encorafenib]
Procedure, shortened: as §1

[10] = compound: COC(=O)[C@H](CCSC)NC(=O)C1=C(C=C(C=C1)NC[C@H](CS)N)C2=CC=CC=C2
Procedure, shortened: as §1

Measured: log2 fold change

SPATA5 (UniProt Q8NB90)
inactive: [1] 0.025 | [2] 0.023 | [3] 0.065 | [4] -0.025 | [5] 0 | [6] 0.041 | [7] 0.045 | [8] -0.044 | [9] 0 | [10] 0.015

ST7 (UniProt Q9NRC1)
inactive: [1] 0.015 | [2] 0.018 | [3] 0.048 | [4] 0 | [5] -0.1 | [6] 0.014 | [7] 0.055 | [8] -0.016 | [9] 0.03 | [10] -0.06

SRGAP2 (UniProt O75044)
inactive: [1] -0.019 | [2] -0.055 | [3] -0.086 | [4] 0.052 | [5] 0.007 | [6] -0.075 | [7] 0.026 | [8] 0.03 | [9] 0.004 | [10] 0.042

SPRYD4 (UniProt Q8WW59)
inactive: [1] 0.004 | [2] 0.034 | [3] -0.014 | [4] -0.022 | [5] 0.042 | [6] -0.065 | [7] -0.066 | [8] -0.007 | [9] -0.045 | [10] -0.003

ST13 (UniProt P50502)
inactive: [1] -0.014 | [2] -0.021 | [3] -0.057 | [4] -0.015 | [5] 0.012 | [6] -0.043 | [7] -0.036 | [8] 0.008 | [9] -0.001 | [10] 0.005

SPARC (UniProt P09486)
inactive: [1] 0.102 | [2] 0.031 | [3] 0.04 | [4] -0.118 | [5] 0.032 | [6] -0.018 | [7] -0.031 | [8] -0.045 | [9] 0.013 | [10] 0.116

SRP54 (UniProt P61011)
inactive: [1] -0.007 | [2] -0.032 | [3] -0.04 | [4] 0.036 | [5] 0.004 | [6] -0.061 | [7] 0.01 | [8] -0.008 | [9] 0.052 | [10] -0.037

SPPL2A (UniProt Q8TCT8)
inactive: [1] 0.062 | [2] -0.004 | [3] 0.032 | [4] -0.052 | [5] 0.049 | [6] 0.037 | [7] -0.014 | [8] -0.063 | [9] -0.069 | [10] 0.109

STAU2 (UniProt Q9NUL3)
inactive: [1] -0.275 | [2] 0.037 | [3] 0.168 | [4] 0.335 | [5] 0.064 | [6] 0.692 | [7] 0.425 | [8] -0.068 | [9] 0.155 | [10] -0.071

SPIRE2 (UniProt Q8WWL2)
inactive: [1] 0.774 | [2] -0.031 | [3] -0.123 | [4] -0.174 | [7] -0.546 | [8] 0.268 | [9] -0.108

STAT1 (UniProt P42224)
inactive: [1] -0.059 | [2] -0.307 | [3] 0.166 | [4] 0.149 | [5] -0.022 | [6] 0.121 | [7] 0.372 | [8] 0.171 | [9] 0.13 | [10] -0.027

SRPRA (UniProt P08240)
inactive: [1] -0.001 | [2] -0.006 | [4] -0.007 | [5] 0.033 | [6] 0.022 | [7] 0.116 | [8] 0.06 | [9] 0.019 | [10] -0.044

SPECC1L (UniProt Q69YQ0)
inactive: [1] 0.041 | [2] 0.051 | [3] 0.021 | [4] 0 | [5] -0.004 | [6] -0.017 | [7] -0.019 | [8] 0.015 | [9] 0.003 | [10] -0.083

ST6GALNAC1 (UniProt Q9NSC7)
inactive: [1] -0.002 | [2] -0.086 | [3] 0.063 | [4] 0.057 | [5] 0.084 | [6] 0.03 | [7] -0.003 | [8] -0.093 | [9] -0.039 | [10] -0.202

SRPK1 (UniProt Q96SB4)
inactive: [1] -0.214 | [2] -0.025 | [3] 0.453 | [4] 0.116 | [5] 0.102 | [6] 0.407 | [7] 0.283 | [8] 0.132 | [9] 0.152 | [10] -0.065

SRRT (UniProt Q9BXP5)
inactive: [1] -0.066 | [2] -0.197 | [3] -0.242 | [4] 0.143 | [5] -0.047 | [6] -0.3 | [7] -0.005 | [8] 0.147 | [9] 0.136 | [10] -0.081

SSR1 (UniProt P43307)
inactive: [1] 0.008 | [2] 0.028 | [3] 0.017 | [4] -0.019 | [5] 0.021 | [6] 0.008 | [7] 0.012 | [8] -0.024 | [9] -0.02 | [10] 0.02

SPTA1 (UniProt P02549)
inactive: [1] -0.101 | [2] -0.192 | [3] 0.083 | [4] 0.074 | [5] 0.028 | [6] 0.027 | [7] 0.299 | [8] 0.1 | [9] 0.2 | [10] -0.029

SRRM1 (UniProt Q8IYB3)
inactive: [1] 0.035 | [2] 0.033 | [3] 0.088 | [4] -0.058 | [5] -0.095 | [6] 0.007 | [7] 0.186 | [8] -0.019 | [9] 0.044 | [10] 0.072

SREK1 isoform 2 (UniProt Q8WXA9)
inactive: [1] -0.034 | [2] -0.106 | [4] 0.061 | [5] -0.422 | [6] -0.371 | [7] 0.083 | [8] 0.013 | [9] 0.059 | [10] -0.007

STARD7 (UniProt Q9NQZ5)
inactive: [1] -0.021 | [2] 0.041 | [4] -0.005 | [5] -0.012 | [6] -0.047 | [7] -0.009 | [8] -0.014 | [9] 0.03 | [10] -0.043

2 consecutive records already listed:
STAT1 (UniProt P42224)
inactive: [1] -0.059 | [2] -0.307 | [3] 0.166 | [4] 0.149 | [5] -0.022 | [6] 0.121 | [7] 0.372 | [8] 0.171 | [9] 0.13 | [10] -0.027

SRPRA (UniProt P08240)
inactive: [1] -0.001 | [2] -0.006 | [4] -0.007 | [5] 0.033 | [6] 0.022 | [7] 0.116 | [8] 0.06 | [9] 0.019 | [10] -0.044

Next records follow.

STK11 (UniProt Q15831)
inactive: [1] 0.049 | [2] 0.047 | [3] -0.032 | [4] -0.001 | [5] -0.06 | [6] -0.091 | [7] -0.039 | [8] -0.036 | [9] 0.026 | [10] 0.05

SREK1IP1 (UniProt Q8N9Q2)
inactive: [1] -0.041 | [2] -0.045 | [3] 0.238 | [4] -0.059 | [5] 0.053 | [6] 0.206 | [7] 0.091 | [8] -0.02 | [9] 0.001 | [10] -0.017

SPTB isoform 2 (UniProt P11277)
inactive: [1] -0.07 | [2] 0.291 | [3] -0.081 | [4] 0.569 | [5] 0.042 | [6] 0.087 | [7] 0.377 | [8] 0.157 | [9] 0.132 | [10] -0.102

SSBP3 (UniProt Q9BWW4)
inactive: [1] -0.038 | [2] -0.054 | [3] -0.086 | [4] 0.007 | [5] 0.016 | [6] -0.078 | [7] 0.089 | [8] -0.026 | [9] -0.024 | [10] 0.077

STAU1 (UniProt O95793)
inactive: [1] -0.133 | [2] -0.019 | [3] 0.358 | [4] 0.17 | [5] 0.037 | [6] 0.37 | [7] 0.338 | [8] 0.142 | [9] 0.137 | [10] 0.034

SPTBN4 (UniProt Q9H254)
inactive: [1] -0.056 | [2] 0.009 | [4] -0.005 | [5] -0.284 | [6] 0.039 | [7] 0.059 | [8] -0.035 | [9] -0.076 | [10] -0.002

SPATS2L isoform 3 (UniProt Q9NUQ6)
inactive: [1] 0.009 | [2] 0.028 | [3] 0.327 | [8] 0.115

SPP2 (UniProt Q13103)
inactive: [1] 0.079 | [2] 0.228 | [3] 0.028 | [4] -0.222 | [5] 0.03 | [6] 0.088 | [8] -0.027 | [10] -0.006

SPG21 (UniProt Q9NZD8)
inactive: [1] 0.007 | [2] -0.005 | [4] 0.016 | [5] -0.015 | [6] -0.134 | [7] 0.089 | [8] 0.211 | [9] -0.022 | [10] 0.01

STIP1 isoform 2 (UniProt P31948)
inactive: [1] 0.03 | [2] -0.007 | [3] -0.019 | [4] -0.021 | [5] 0.01 | [6] -0.001 | [7] -0.062 | [8] -0.029 | [9] 0.025 | [10] 0.03
